Reference: patent US20060223888A1, “Valproic acid analogues and pharmaceutical composition thereof” (priority 2002, published 2006)

These molecules were tested on PTZ-induced seizures (assay: ED50 against PTZ-induced seizures, i.p.). Conditions: male Sprague-Dawley rats (n = 8).
Type: in vivo
Source text: These compounds were investigated for anticonvulsant activity in mice^13 and rats (see results in Table 4) and found to be equivalent in potency to VPA.

Row | Compound | SLOPE of the log dose-response plot
1 | C/C=C\C(=C/CC)C(=O)[O-].[Na+] [325073A, Sodium (2E)-2-[(1Z)-prop-1-en-1-yl]pent-2-enoate] | 1.2 (0.8-1.8)
2 | CCC=C(CCC)C(=O)O [(E)-2-ene VPA, 2-propylpent-2-enoic acid] | 1.2 (1.0-1.3)
3 | CCCC(CCC)C(=O)[O-].[Na+] [332059A, Sodium 2-propylpentanoate, reference compound] | 1.2 (1.1-1.3)
